From paper PMC12124498

By UniProt entry, the sequences of proteins in these tests, tags left out.
UniProt P26368: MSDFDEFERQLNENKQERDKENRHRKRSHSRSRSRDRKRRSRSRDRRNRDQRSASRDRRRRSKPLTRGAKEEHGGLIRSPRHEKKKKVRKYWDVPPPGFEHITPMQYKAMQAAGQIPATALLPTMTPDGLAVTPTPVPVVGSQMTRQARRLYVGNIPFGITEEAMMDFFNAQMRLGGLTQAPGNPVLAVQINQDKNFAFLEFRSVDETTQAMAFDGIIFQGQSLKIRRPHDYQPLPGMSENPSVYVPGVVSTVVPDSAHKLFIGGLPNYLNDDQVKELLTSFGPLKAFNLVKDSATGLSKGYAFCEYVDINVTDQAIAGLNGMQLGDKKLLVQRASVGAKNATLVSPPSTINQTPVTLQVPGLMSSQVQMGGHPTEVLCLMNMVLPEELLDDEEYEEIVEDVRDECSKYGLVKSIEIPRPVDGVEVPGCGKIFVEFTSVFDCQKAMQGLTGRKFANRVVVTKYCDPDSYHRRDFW

Molecular target: U2AF2-TurboID-HA (human) (UniProt P26368)
Assay: proximity labelling; U2AF2-TurboID-HA induced with doxycycline for 4 h in mesoderm cells differentiated from hiPSC (CHIR99021, 24 h); biotinylated proteins purified on streptavidin magnetic beads, LC-MS with label-free quantification; hits: Log2ΔLFQ >= 2 and p <= 0.05, mesoderm against pluripotent U2AF2-TurboID samples or against GFP-TurboID

Binder | binding
CBS (protein, UniProt P35520 1-551) MPSETPQAEVGPTGCPHRSGPHSAKGSLEKGSPEDKEAKEPLWIRPDAPSRCTWQLGRPASESPHHHTAPAKSPKILPDILKKIGDTPMVRINKIGKKFGLKCELLAKCEFFNAGGSVKDRISLRMIEDAERDGTLKPGDTIIEPTSGNTGIGLALAAAVRGYRCIIVMPEKMSSEKVDVLRALGAEIVRTPTNARFDSPESHVGVAWRLKNEIPNSHILDQYRNASNPLAHYDTTADEILQQCDGKLDMLVASVGTGGTITGIARKLKEKCPGCRIIGVDPEGSILAEPEELNQTEQTTYEVEGIGYDFIPTVLDRTVVDKWFKSNDEEAFTFARMLIAQEGLLCGGSAGSTVAVAVKAAQELQEGQRCVVILPDSVRNYMTKFLSDRWMLQKGFLKEEDLTEKKPWWWHLRVQELGLSAPLTVLPTITCGHTIEILREKGFDQAPVVDEAGVILGMVTLGNMLSSLLAGKVQPSDQVGKVIYKQFKQIRLTDTLGRLSHILEMDHFALVVHEQIQYHSTGKSSQRQMVFGVVTAIDLLNFVAAQERDQK | binds
ACO2 (protein, UniProt Q99798 28-780) QRAKVAMSHFEPNEYIHYDLLEKNINIVRKRLNRPLTLSEKIVYGHLDDPASQEIERGKSYLRLRPDRVAMQDATAQMAMLQFISSGLSKVAVPSTIHCDHLIEAQVGGEKDLRRAKDINQEVYNFLATAGAKYGVGFWKPGSGIIHQIILENYAYPGVLLIGTDSHTPNGGGLGGICIGVGGADAVDVMAGIPWELKCPKVIGVKLTGSLSGWSSPKDVILKVAGILTVKGGTGAIVEYHGPGVDSISCTGMATICNMGAEIGATTSVFPYNHRMKKYLSKTGREDIANLADEFKDHLVPDPGCHYDQLIEINLSELKPHINGPFTPDLAHPVAEVGKVAEKEGWPLDIRVGLIGSCTNSSYEDMGRSAAVAKQALAHGLKCKSQFTITPGSEQIRATIERDGYAQILRDLGGIVLANACGPCIGQWDRKDIKKGEKNTIVTSYNRNFTGRNDANPETHAFVTSPEIVTALAIAGTLKFNPETDYLTGTDGKKFRLEAPDADELPKGEFDPGQDTYQHPPKDSSGQHVDVSPTSQRLQLLEPFDKWDGKDLEDLQILIKVKGKCTTDHISAAGPWLKFRGHLDNISNNLLIGAINIENGKANSVRNAVTQEFGPVPDTARYYKKHGIRWVVIGDENYGEGSSREHAALEPRHLGGRAIITKSFARIHETNLKKQGLLPLTFADPADYNKIHPVDKLTIQGLKDFTPGKPLKCIIKHPNGTQETILLNHTFNETQIEWFRAGSALNRMKELQQ | binds
DDX46 (protein, UniProt Q7L014 1-1031) MGRESRHYRKRSASRGRSGSRSRSRSPSDKRSKRGDDRRSRSRDRDRRRERSRSRDKRRSRSRDRKRLRRSRSRERDRSRERRRSRSRDRRRSRSRSRGRRSRSSSPGNKSKKTENRSRSKEKTDGGESSKEKKKDKDDKEDEKEKDAGNFDQNKLEEEMRKRKERVEKWREEQRKKAMENIGELKKEIEEMKQGKKWSLEDDDDDEDDPAEAEKEGNEMEGEELDPLDAYMEEVKEEVKKFNMRSVKGGGGNEKKSGPTVTKVVTVVTTKKAVVDSDKKKGELMENDQDAMEYSSEEEEVDLQTALTGYQTKQRKLLEPVDHGKIEYEPFRKNFYVEVPELAKMSQEEVNVFRLEMEGITVKGKGCPKPIKSWVQCGISMKILNSLKKHGYEKPTPIQTQAIPAIMSGRDLIGIAKTGSGKTIAFLLPMFRHIMDQRSLEEGEGPIAVIMTPTRELALQITKECKKFSKTLGLRVVCVYGGTGISEQIAELKRGAEIIVCTPGRMIDMLAANSGRVTNLRRVTYVVLDEADRMFDMGFEPQVMRIVDNVRPDRQTVMFSATFPRAMEALARRILSKPIEVQVGGRSVVCSDVEQQVIVIEEEKKFLKLLELLGHYQESGSVIIFVDKQEHADGLLKDLMRASYPCMSLHGGIDQYDRDSIINDFKNGTCKLLVATSVAARGLDVKHLILVVNYSCPNHYEDYVHRAGRTGRAGNKGYAYTFITEDQARYAGDIIKALELSGTAVPPDLEKLWSDFKDQQKAEGKIIKKSSGFSGKGFKFDETEQALANERKKLQKAALGLQDSDDEDAAVDIDEQIESMFNSKKRVKDMAAPGTSSVPAPTAGNAEKLEIAKRLALRINAQKNLGIESQDVMQQATNAILRGGTILAPTVSAKTIAEQLAEKINAKLNYVPLEKQEEERQDGGQNESFKRYEEELEINDFPQTARWKVTSKEALQRISEYSEAAITIRGTYFPPGKEPKEGERKIYLAIESANELAVQKAKAEITRLIKEELIRLQNSYQPTNKGRYKVL | binds
DLAT (protein, UniProt P10515 87-647) SLPPHQKVPLPSLSPTMQAGTIARWEKKEGDKINEGDLIAEVETDKATVGFESLEECYMAKILVAEGTRDVPIGAIICITVGKPEDIEAFKNYTLDSSAAPTPQAAPAPTPAATASPPTPSAQAPGSSYPPHMQVLLPALSPTMTMGTVQRWEKKVGEKLSEGDLLAEIETDKATIGFEVQEEGYLAKILVPEGTRDVPLGTPLCIIVEKEADISAFADYRPTEVTDLKPQVPPPTPPPVAAVPPTPQPLAPTPSAPCPATPAGPKGRVFVSPLAKKLAVEKGIDLTQVKGTGPDGRITKKDIDSFVPSKVAPAPAAVVPPTGPGMAPVPTGVFTDIPISNIRRVIAQRLMQSKQTIPHYYLSIDVNMGEVLLVRKELNKILEGRSKISVNDFIIKASALACLKVPEANSSWMDTVIRQNHVVDVSVAVSTPAGLITPIVFNAHIKGVETIANDVVSLATKAREGKLQPHEFQGGTFTISNLGMFGIKNFSAIINPPQACILAIGASEDKLVPADNEKGFDVASMMSVTLSCDHRVVDGAVGAQWLAEFRKYLEKPITMLL | binds

Further lines, results first:

binding | Binder
binds | NOL7 (protein, UniProt Q9UMY1 1-257) MVQLRPRASRAPASAEAMVDEGQLASEEEEAEHGLLLGQPSSGAAAEPLEEDEEGDDEFDDEAPEELTFASAQAEAREEERRVRETVRRDKTLLKEKRKRREELFIEQKKRKLLPDTILEKLTTASQTNIKKSPGKVKEVNLQKKNEDCEKGNDSKKVKVQKVQSVSQNKSYLAVRLKDQDLRDSRQQAAQAFIHNSLYGPGTNRTTVNKFLSLANKRLPVKRAAVQFLNNAWGIQKKQNAKRFKRRWMVRKMKTKK
binds | MARCKS (protein, UniProt P29966 1-332) MGAQFSKTAAKGEAAAERPGEAAVASSPSKANGQENGHVKVNGDASPAAAESGAKEELQANGSAPAADKEEPAAAGSGAASPSAAEKGEPAAAAAPEAGASPVEKEAPAEGEAAEPGSPTAAEGEAASAASSTSSPKAEDGATPSPSNETPKKKKKRFSFKKSFKLSGFSFKKNKKEAGEGGEAEAPAAEGGKDEAAGGAAAAAAEAGAASGEQAAAPGEEAAAGEEGAAGGDPQEAKPQEAAVAPEKPPASDETKAAEEPSKVEEKKAEEAGASAAACEAPSAAGPGAPPEQEAAPAEEPAAAAASSACAAPSQEAQPECSPEAPPAEAAE
binds | SYMPK (protein, UniProt Q92797 1-1274) MASGSGDSVTRRSVASQFFTQEEGPGIDGMTTSERVVDLLNQAALITNDSKITVLKQVQELIINKDPTLLDNFLDEIIAFQADKSIEVRKFVIGFIEEACKRDIELLLKLIANLNMLLRDENVNVVKKAILTMTQLYKVALQWMVKSRVISELQEACWDMVSAMAGDIILLLDSDNDGIRTHAIKFVEGLIVTLSPRMADSEIPRRQEHDISLDRIPRDHPYIQYNVLWEEGKAALEQLLKFMVHPAISSINLTTALGSLANIARQRPMFMSEVIQAYETLHANLPPTLAKSQVSSVRKNLKLHLLSVLKHPASLEFQAQITTLLVDLGTPQAEIARNMPSSKDTRKRPRDDSDSTLKKMKLEPNLGEDDEDKDLEPGPSGTSKASAQISGQSDTDITAEFLQPLLTPDNVANLVLISMVYLPEAMPASFQAIYTPVESAGTEAQIKHLARLMATQMTAAGLGPGVEQTKQCKEEPKEEKVVKTESVLIKRRLSAQGQAISVVGSLSSMSPLEEEAPQAKRRPEPIIPVTQPRLAGAGGRKKIFRLSDVLKPLTDAQVEAMKLGAVKRILRAEKAVACSGAAQVRIKILASLVTQFNSGLKAEVLSFILEDVRARLDLAFAWLYQEYNAYLAAGASGSLDKYEDCLIRLLSGLQEKPDQKDGIFTKVVLEAPLITESALEVVRKYCEDESRTYLGMSTLRDLIFKRPSRQFQYLHVLLDLSSHEKDKVRSQALLFIKRMYEKEQLREYVEKFALNYLQLLVHPNPPSVLFGADKDTEVAAPWTEETVKQCLYLYLALLPQNHKLIHELAAVYTEAIADIKRTVLRVIEQPIRGMGMNSPELLLLVENCPKGAETLVTRCLHSLTDKVPPSPELVKRVRDLYHKRLPDVRFLIPVLNGLEKKEVIQALPKLIKLNPIVVKEVFNRLLGTQHGEGNSALSPLNPGELLIALHNIDSVKCDMKSIIKATNLCFAERNVYTSEVLAVVMQQLMEQSPLPMLLMRTVIQSLTMYPRLGGFVMNILSRLIMKQVWKYPKVWEGFIKCCQRTKPQSFQVILQLPPQQLGAVFDKCPELREPLLAHVRSFTPHQQAHIPNSIMTILEASGKQEPEAKEAPAGPLEEDDLEPLTLAPAPAPRPPQDLIGLRLAQEKALKRQLEEEQKLKPGGVGAPSSSSPSPSPSARPGPPPSEEAMDFREEGPECETPGIFISMDDDSGLTEAALLDSSLEGPLPKETAAGGLTLKEERSPQTLAPVGEDAMKTPSPAAEDAREPEAKGNS
binds | SUGP1 (protein, UniProt Q8IWZ8 1-645) MSLKMDNRDVAGKANRWFGVAPPKSGKMNMNILHQEELIAQKKREIEAKMEQKAKQNQVASPQPPHPGEITNAHNSSCISNKFANDGSFLQQFLKLQKAQTSTDAPTSAPSAPPSTPTPSAGKRSLLISRRTGLGLASLPGPVKSYSHAKQLPVAHRPSVFQSPDEDEEEDYEQWLEIKVSPPEGAETRKVIEKLARFVAEGGPELEKVAMEDYKDNPAFAFLHDKNSREFLYYRKKVAEIRKEAQKSQAASQKVSPPEDEEVKNLAEKLARFIADGGPEVETIALQNNRENQAFSFLYEPNSQGYKYYRQKLEEFRKAKASSTGSFTAPDPGLKRKSPPEALSGSLPPATTCPASSTPAPTIIPAPAAPGKPASAATVKRKRKSRWGPEEDKVELPPAELVQRDVDASPSPLSVQDLKGLGYEKGKPVGLVGVTELSDAQKKQLKEQQEMQQMYDMIMQHKRAMQDMQLLWEKAVQQHQHGYDSDEEVDSELGTWEHQLRRMEMDKTREWAEQLTKMGRGKHFIGDFLPPDELEKFMETFKALKEGREPDYSEYKEFKLTVENIGYQMLMKMGWKEGEGLGSEGQGIKNPVNKGTTTVDGAGFGIDRPAELSKEDDEYEAFRKRMMLAYRFRPNPLNNPRRPYY

No constants are given. Whether binding was seen depends on the method and setting. Binding seen in cells or lysates may run through a third protein. These calls come from enrichment with a bait or labelling near it, and not all partners need be listed.
